No constants are given. Whether binding was seen depends on the method and setting. Some binding calls cover weakened binding; strength is not graded here. Where a sequence is shown, tags or fusion partners need not be part of it.
Legend:
[1] = target: T1, MR ectodomain-Fc (human) (UniProt Q8WZ75); assay: hybridoma screening ELISA
T1 sequence: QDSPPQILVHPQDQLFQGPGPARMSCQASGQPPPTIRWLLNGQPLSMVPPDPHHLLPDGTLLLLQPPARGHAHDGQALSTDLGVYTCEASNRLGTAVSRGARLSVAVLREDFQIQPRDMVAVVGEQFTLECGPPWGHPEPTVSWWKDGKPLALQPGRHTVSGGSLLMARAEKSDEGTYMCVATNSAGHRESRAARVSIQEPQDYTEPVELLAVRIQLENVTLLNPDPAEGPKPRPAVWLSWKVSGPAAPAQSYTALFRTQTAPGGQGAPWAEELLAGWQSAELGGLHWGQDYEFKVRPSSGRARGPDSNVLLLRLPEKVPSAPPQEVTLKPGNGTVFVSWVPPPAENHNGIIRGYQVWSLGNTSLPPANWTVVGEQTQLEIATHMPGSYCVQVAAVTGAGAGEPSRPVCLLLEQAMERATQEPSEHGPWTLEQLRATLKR

[2] = target: T2, MR IgA-Fc (human) (UniProt Q8WZ75); assay: ELISA on various domains of MR
T2 sequence: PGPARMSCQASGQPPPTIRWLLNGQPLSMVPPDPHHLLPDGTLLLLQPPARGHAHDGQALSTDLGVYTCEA

binding [1]: binds
binding [2]: binds
B1: MR7 antibody (antibody, V domains shown)
VH: QVKLQESGPELVKPGASVKISCKASGYSLTDYNLNWVKQNKGKSLEWIGVINPNYGTTSYNQKFKGKATLTVDQSSSTTYMQLNSLTSEDSAVYYCARGRDYFGYWGQGTTVTVSS
VL: QIVLTQSPALMSASPGEKVTMTCSASSSVSYMYWYQQKPRSSPKPWIYLTSNLASGVPARFSGSGSGTSYSLTISSMEAEDAATYYCQQWSSNPLTFGAGTKLELK

Source: US20080166295A1
